# PubChem BioAssay AID489039 (National Center for Advancing Translational Sciences (NCATS), 2010)
# The inconclusive results got no clear call from the source; some entries with a clear call stand among them for comparison. Where the call is inconclusive, the potency comes from a doubtful curve fit. Activity calls are given as the source filed them. Calls come from the whole dose curve; as a rule, active = well fitted inhibition curve with a large enough effect; inconclusive = small, poorly fitted or top-dose-only effect, or effect the other way; inactive = no such curve, though single readings can be large or run the other way.
# Target: Nuclear receptor ROR-alpha (Homo sapiens) (UniProt P35398)
# Test: ROR alpha selectivity assay for inhibitors of ROR gamma transcriptional activity
# Details: Drosophila S2 Gal4-RORalpha UAS-luciferase, 20 h; series mostly up to 92.2 µM
# Method in brief: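 Drosophila Schneider cells stably carrying Gal4-DBD/RORalpha fusion under metallothionein promoter plus UAS-Photinus luciferase; 1 h compound preincubation, then copper sulfate (700 uM final) induction. Luminescence read after 20 h at ambient temperature.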
row,SMILES,Potency
1,COc1cc(O)c(C(CC(=O)NCc2ccccc2)c2ccc3c(c2)OCO3)c(OC)c1 (stereo not given),"inconclusive: 18.2 µM [activator, partial curve, poor fit]"
2,COc1cc(O)c(C(CC(=O)N2CCCC(C)C2)c2ccccc2C)c(OC)c1 (stereo not given),"inconclusive: 72.4 µM [inhibitor, single point]"
3,COc1cc(O)c(C(CC(=O)N2CC(C)CC(C)C2)c2ccc(O)cc2)c(OC)c1 (stereo not given),"inconclusive: 0.575 µM [activator, full curve, poor fit]"
4,COc1cc(C)nc(-n2nc(C)cc2OC)n1,active: 8.12 µM
5,COc1cc(O)c(C(CC(=O)N2CCC(c3ccccc3)CC2)c2ccc(C)cc2)c(OC)c1 (stereo not given),"inconclusive: 64.5 µM [activator, partial curve, poor fit]"
